Numbering of substitutions follows the chain as printed. Construct, isoform or probe ends are uncertain for at least one entry. For some of these results: Negatives hold for the conditions tested. Tags and fusion partners may be left off the protein sequences shown. For some of these results: A weaker result is weaker than the reference pair of the same experiment.
How the values were obtained:
Experiment in all cases: EMSA
[1] = target: T1, CtrA (Rhodobacter capsulatus) (UniProt D5ATW9); conditions: 80 nM Cy5-dsDNA, 25 mM HEPES pH 8.0, 50 mM K-glutamate, 50 mM MgSO4, 1 mM DTT, 0.1 mM EDTA, 0.05% Triton X-100, 1 ug poly dI:dC, 4% glycerol, 30 C 15 min, recombinant protein, protein details: His6 (pEHisTEV, N-terminal)
T1 sequence (looked up, limits assumed): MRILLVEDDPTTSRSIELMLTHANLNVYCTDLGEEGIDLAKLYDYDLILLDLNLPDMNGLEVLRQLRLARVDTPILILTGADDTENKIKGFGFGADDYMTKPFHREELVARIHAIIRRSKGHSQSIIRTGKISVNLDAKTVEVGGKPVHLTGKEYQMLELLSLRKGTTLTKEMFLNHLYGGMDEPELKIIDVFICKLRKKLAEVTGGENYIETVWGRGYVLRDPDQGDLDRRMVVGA

[2] = target: T2, GafA (Rhodobacter capsulatus) (UniProt D5AUH1); conditions: up to 4 uM GafA, legend says unshifted, although 50 bp pGTA2 is bound; 80 nM Cy5-dsDNA, 25 mM HEPES pH 8.0, 50 mM K-glutamate, 50 mM MgSO4, 1 mM DTT, 0.1 mM EDTA, 0.05% Triton X-100, 1 ug poly dI:dC, 4% glycerol, 30 C 15 min; recombinant protein; label: 5'-Cy5; probe letters rebuilt from the primers and the genome
T2 sequence (looked up, limits assumed): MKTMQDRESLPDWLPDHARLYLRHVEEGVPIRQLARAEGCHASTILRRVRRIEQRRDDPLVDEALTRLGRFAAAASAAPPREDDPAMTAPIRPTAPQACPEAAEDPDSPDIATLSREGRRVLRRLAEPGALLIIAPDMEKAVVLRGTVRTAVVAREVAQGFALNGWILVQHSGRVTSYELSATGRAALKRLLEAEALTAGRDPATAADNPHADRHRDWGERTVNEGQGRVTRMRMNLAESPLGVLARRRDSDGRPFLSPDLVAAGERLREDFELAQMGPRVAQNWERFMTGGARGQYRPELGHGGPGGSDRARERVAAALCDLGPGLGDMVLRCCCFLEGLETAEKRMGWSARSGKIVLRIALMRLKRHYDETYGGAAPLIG

[3] = target: T3, CtrA D51E (Rhodobacter capsulatus) (UniProt D5ATW9); conditions: low affinity; 80 nM Cy5-dsDNA, 25 mM HEPES pH 8.0, 50 mM K-glutamate, 50 mM MgSO4, 1 mM DTT, 0.1 mM EDTA, 0.05% Triton X-100, 1 ug poly dI:dC, 4% glycerol, 30 C 15 min; recombinant protein; label: 5'-Cy5 (one strand)
T3 sequence (looked up, limits assumed): T1 sequence (looked up, limits assumed) with D51E

Sequence	binding result ([1]; up to 4 uM CtrA, label: 5'-Cy5, probe letters rebuilt from the primers and the genome)	binding result [2]	binding result ([1]; no detectable binding at up to 8000 nM protein, label: 5'-Cy5 (one strand))	binding result [3]
GGGATGCGGCTGCAGACCGATCCGGCGGTGATTTACGGCGTGACCAAGGGGCAGGGCGTGCTGGGGCGCGGTTTGCGGCAATCGGAGCTGCGGCGCGAGACGCCCTATAACACCTATGTCATCGACGGGCTGCCGCCGGGGCCGATCTGCAACCCCGGGACGCAGGCGATCCGCGCGGCGCTGAACCCTGATTCGACGAAGTTCCTGTATTTCGTGGCGGACGGCACCGGCGGGCATGCTTTTGCCGAGACGATCACCGAGCATAACCGGAACGTCGCGCGCTGGCGGGAGATCGAGAAGACCCAAAAGCAGGGCGCAAGCGACGGAAACTGAAGGAAAACCCCGGCTTCGTCCGGGGTTTTTTCTTTTCAGCGGGTGCAACCCTGAATATAGCACTTGACTTTGCGAACGCTTCAAGGTAGAGATAAGGCATGCTAGGAGAGGTGGGCAAGCGCCGCGGGTGACCGTGTGCGCTTTTTTCATTTCGCTCGTGCGGACAGGCATGAGAGGCGGGTCACGCAAGACATGGACATGGGGTTCAAGGGTGGGGACGCTCCTCCGGTGGATTTGCTGGAGGAGACGGAGGAGCTTTATCGGGAAATTGCCGGGGAACTGGCCCTGGCGATGGTCAGC (double strand) [pGTA full-length RcGTA promoter, 633 bp]	no binding	no binding		
GAACGGAATCCTGCGACAGTAACTACGTGTTAACCATTTGGTGACAAGGT (double strand) [pCtrA_50 (ctrA promoter)]			no binding	binds more weakly
